Source: the supplement of paper PMC4635364
Structures can show the parent of a compound that is named as a salt. This is one part of the list. Repeats in this data set agree poorly, so a single value says little.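 Human fetal ventral-midbrain neural progenitor line ReNCell VM, differentiated without mitogens. Images stained for doublecortin (early neurons) or tyrosine hydroxylase (dopaminergic neurons) were scored by blinded raters against untreated wells (0 = no change). Repeats and both raters were averaged, and compounds averaging 2 or higher were picked as hits for retesting.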

Legend:
ReNCell VM [1] = test: neuronal differentiation score (DCX+ cell fraction vs untreated, manual image score) (score (-3 to 3)); higher = more neuronal differentiation; conditions: 2 uM, 2 weeks
ReNCell VM [2] = test: dopaminergic neuron differentiation score (TH+ cell fraction vs untreated, manual image score) (score (0 to 3)); higher = more TH+ dopaminergic neuron differentiation; conditions: 2 uM, 4 weeks, BDNF 10 ng/ml + GDNF 10 ng/ml

C[C@H]1CCC([C@@H](C)[C@H]2CC[C@H]3[C@@H]4CC(=O)[C@H]5C[C@@H](O)CC[C@]5(C)[C@H]4CC[C@]23C)=NC1 [petiline]
neuronal differentiation score (ReNCell VM [1]; library: Natural): inactive: 0 | dopaminergic neuron differentiation score (ReNCell VM [2]; library: Natural): inactive: 0

O=C1C2=C(SC3OC(CO)C(O)C(O)C3O2)C(=O)c2ccccc21 (stereo not drawn)
neuronal differentiation score (ReNCell VM [1]; library: Natural): inactive: 0 | dopaminergic neuron differentiation score (ReNCell VM [2]; library: Natural): inactive: 0

COc1ccc([C@@H]2CC(=O)c3c(O)cc(O)cc3O2)cc1O [Hesperetin]
neuronal differentiation score (ReNCell VM [1]; library: Phytochemical): inactive: 0 | dopaminergic neuron differentiation score (ReNCell VM [2]; library: Phytochemical): inactive: 0

C=C1C[C@]23C[C@@]1(O)CC[C@H]2[C@@]12C=C[C@H](O)[C@@](C)(C(=O)O1)[C@H]2[C@@H]3C(=O)O [Gibberellic acid]
neuronal differentiation score (ReNCell VM [1]; library: Phytochemical): inactive: 0 | dopaminergic neuron differentiation score (ReNCell VM [2]; library: Phytochemical): inactive: 0

OCc1ccccc1
neuronal differentiation score (ReNCell VM [1]; library: Spectrum): inactive: 0 | dopaminergic neuron differentiation score (ReNCell VM [2]; library: Spectrum): inactive: 0

Cc1cc(OC(=O)c2c(C)cc(O)cc2O)cc(O)c1C(=O)O
neuronal differentiation score (ReNCell VM [1]; library: Spectrum): inactive: 0 | dopaminergic neuron differentiation score (ReNCell VM [2]; library: Spectrum): inactive: 0

CCCCC[C@H](O)/C=C/[C@@H]1[C@@H](C/C=C\CCCC(=O)O)[C@@H](O)C[C@H]1O [Dinoprost trometamol]
neuronal differentiation score (ReNCell VM [1]; library: Prestwick): inactive: 0 | dopaminergic neuron differentiation score (ReNCell VM [2]; library: Prestwick): inactive: 0

COc1ccc2[nH]c(-c3ccccc3)c(CCNC(C)=O)c2c1 [2-Phenylmelatonin]
neuronal differentiation score (ReNCell VM [1]; library: Tocriscreen): inactive: 0 | dopaminergic neuron differentiation score (ReNCell VM [2]; library: Tocriscreen): inactive: 0

C[C@@H]1O[C@@H](OC[C@H]2O[C@@H](Oc3c(-c4ccc(OCCO)c(OCCO)c4)oc4cc(OCCO)cc(O)c4c3=O)[C@H](O)[C@@H](O)[C@@H]2O)[C@H](O)[C@H](O)[C@H]1O
neuronal differentiation score (ReNCell VM [1]; library: Spectrum): inactive: 0 | dopaminergic neuron differentiation score (ReNCell VM [2]; library: Spectrum): inactive: 0

CC(=O)OCC1=C(C(=O)O)N2C(=O)[C@@H](NC(=O)Cc3cccs3)[C@H]2SC1
neuronal differentiation score (ReNCell VM [1]; library: Spectrum): inactive: 1 | dopaminergic neuron differentiation score (ReNCell VM [2]; library: Spectrum): inactive: 0

O=C(O)c1cc(=O)c2c(OCC(O)COc3cccc4oc(C(=O)O)cc(=O)c34)cccc2o1 [Cromolyn disodium salt]
neuronal differentiation score (ReNCell VM [1]; library: Prestwick): inactive: 0 | dopaminergic neuron differentiation score (ReNCell VM [2]; library: Prestwick): inactive: 0

C#C[C@]1(O)CC[C@H]2[C@@H]3CCc4cc(O)ccc4[C@H]3CC[C@@]21C [Ethinylestradiol]
neuronal differentiation score (ReNCell VM [1]; library: Prestwick): inactive: 0 | dopaminergic neuron differentiation score (ReNCell VM [2]; library: Prestwick): inactive: 0

CC(C)N1CCN(c2ccc(OCC3COC(Cn4cncn4)(c4ccc(Cl)cc4Cl)O3)cc2)CC1 (stereo not drawn) [Terconazole]
neuronal differentiation score (ReNCell VM [1]; library: Prestwick): inactive: 0 | dopaminergic neuron differentiation score (ReNCell VM [2]; library: Prestwick): inactive: 0

CC(C)NC[C@@H](O)COc1cccc2ccccc12 [(R)-Propranolol hydrochloride]
neuronal differentiation score (ReNCell VM [1]; library: Prestwick): inactive: 0 | dopaminergic neuron differentiation score (ReNCell VM [2]; library: Prestwick): inactive: 0

CC(O)Cn1cnc2c1c(=O)n(C)c(=O)n2C (stereo not drawn) [Proxyphylline]
neuronal differentiation score (ReNCell VM [1]; library: Phytochemical): inactive: 0 | dopaminergic neuron differentiation score (ReNCell VM [2]; library: Phytochemical): inactive: 0

CCn1cc(C(=O)O)c(=O)c2ccc(C)nc21
neuronal differentiation score (ReNCell VM [1]; library: Spectrum): inactive: 1 | dopaminergic neuron differentiation score (ReNCell VM [2]; library: Spectrum): inactive: 0

O=C(c1cccnc1)N1CCOCC1
neuronal differentiation score (ReNCell VM [1]; library: Spectrum): inactive: 0 | dopaminergic neuron differentiation score (ReNCell VM [2]; library: Spectrum): inactive: 0

Cc1cc(NC(=O)Nc2ccc(N(C)C)cc2)c2cc(F)cc(F)c2n1
neuronal differentiation score (ReNCell VM [1]; library: Tocriscreen): inactive: 0 | dopaminergic neuron differentiation score (ReNCell VM [2]; library: Tocriscreen): inactive: 0

CC(Oc1c(Cl)cccc1Cl)C1=NCCN1 (stereo not drawn)
neuronal differentiation score (ReNCell VM [1]; library: Spectrum): inactive: 0 | dopaminergic neuron differentiation score (ReNCell VM [2]; library: Spectrum): inactive: 0

O=C(O)CS
neuronal differentiation score (ReNCell VM [1]; library: Spectrum): inactive: 0 | dopaminergic neuron differentiation score (ReNCell VM [2]; library: Spectrum): inactive: 0

COc1cc2c(cc1O)CC[C@@H]1[C@@H]2CC[C@]2(C)[C@@H](O)CC[C@@H]12 [2-Methoxyestradiol]
neuronal differentiation score (ReNCell VM [1]; library: Tocriscreen): inactive: 0 | dopaminergic neuron differentiation score (ReNCell VM [2]; library: Tocriscreen): inactive: 0

CC(=O)OCC(=O)[C@@]12N=C(C)O[C@@H]1C[C@H]1[C@@H]3CCC4=CC(=O)C=C[C@]4(C)[C@H]3[C@@H](O)C[C@@]12C [Deflazacort]
neuronal differentiation score (ReNCell VM [1]; library: Prestwick): inactive: 0 | dopaminergic neuron differentiation score (ReNCell VM [2]; library: Prestwick): inactive: 0

CC(C)(C)NCC(O)c1ccc(O)c(CO)c1 (stereo not drawn)
neuronal differentiation score (ReNCell VM [1]; library: Spectrum): inactive: 0 | dopaminergic neuron differentiation score (ReNCell VM [2]; library: Spectrum): inactive: 0

N[C@@H](C(=O)O)[C@@H](O)[C@H](O)[C@H](O)CO
neuronal differentiation score (ReNCell VM [1]; library: Spectrum): inactive: 0 | dopaminergic neuron differentiation score (ReNCell VM [2]; library: Spectrum): inactive: 0

C[C@H](CS)C(=O)N1CCC[C@H]1C(=O)O
neuronal differentiation score (ReNCell VM [1]; library: Spectrum): inactive: 0 | dopaminergic neuron differentiation score (ReNCell VM [2]; library: Spectrum): inactive: 0

OC[C@H]1O[C@@H](Oc2ccc(O)cc2)[C@H](O)[C@@H](O)[C@@H]1O
neuronal differentiation score (ReNCell VM [1]; library: Spectrum): inactive: 0 | dopaminergic neuron differentiation score (ReNCell VM [2]; library: Spectrum): inactive: 0

O=c1oc(Cl)c(Cl)c2ccccc12 [3,4-Dichloroisocoumarin]
neuronal differentiation score (ReNCell VM [1]; library: LOPAC): inactive: -1 | dopaminergic neuron differentiation score (ReNCell VM [2]; library: LOPAC): inactive: 1

Cc1cc2c(cc1S(N)(=O)=O)S(=O)(=O)CCC2 [Meticrane]
neuronal differentiation score (ReNCell VM [1]; library: Prestwick): inactive: 0 | dopaminergic neuron differentiation score (ReNCell VM [2]; library: Prestwick): inactive: 0

C=CC[C@@H]1/C=C(\C)C[C@H](C)C[C@H](OC)[C@H]2O[C@@](O)(C(=O)C(=O)N3CCCC[C@H]3C(=O)O[C@H](/C(C)=C/[C@@H]3CC[C@@H](O)[C@H](OC)C3)[C@H](C)[C@@H](O)CC1=O)[C@H](C)C[C@@H]2OC
neuronal differentiation score (ReNCell VM [1]; library: Spectrum): inactive: 1 | dopaminergic neuron differentiation score (ReNCell VM [2]; library: Spectrum): inactive: 0

CNC[C@H](O)c1cccc(O)c1
neuronal differentiation score (ReNCell VM [1]; library: Spectrum): inactive: 0 | dopaminergic neuron differentiation score (ReNCell VM [2]; library: Spectrum): inactive: 0

C[C@@H](CN1CCC(n2c(=O)[nH]c3cc(Cl)ccc32)CC1)NC(=O)c1ccc2ccccc2c1
neuronal differentiation score (ReNCell VM [1]; library: Tocriscreen): inactive: 0 | dopaminergic neuron differentiation score (ReNCell VM [2]; library: Tocriscreen): inactive: 0

COc1ccc([C@H]2O[C@@H](c3ccc(OC)c(OC)c3)[C@H](C)[C@@H]2C)cc1OC [2,5-Bis-(3,4-dimethoxy-phenyl)-3,4-dimethyl-tetrahydro-furan]
neuronal differentiation score (ReNCell VM [1]; library: Natural): inactive: 0 | dopaminergic neuron differentiation score (ReNCell VM [2]; library: Natural): inactive: 0

Cc1c(C(=O)NN2CCCCC2)nn(-c2ccc(Cl)cc2Cl)c1-c1ccc(I)cc1
neuronal differentiation score (ReNCell VM [1]; library: Tocriscreen): inactive: 0 | dopaminergic neuron differentiation score (ReNCell VM [2]; library: Tocriscreen): inactive: 0

O=C(O)CCCCCCCCCCCC[C@@H]1C=CCC1
neuronal differentiation score (ReNCell VM [1]; library: Spectrum): inactive: 0 | dopaminergic neuron differentiation score (ReNCell VM [2]; library: Spectrum): inactive: 0

NCCc1c[nH]cn1
neuronal differentiation score (ReNCell VM [1]; library: Spectrum): inactive: 0 | dopaminergic neuron differentiation score (ReNCell VM [2]; library: Spectrum): inactive: 0

COC(=O)Nc1nc2cc(C(=O)c3ccccc3)ccc2[nH]1
neuronal differentiation score (ReNCell VM [1]; library: Spectrum): inactive: 0 | dopaminergic neuron differentiation score (ReNCell VM [2]; library: Spectrum): inactive: 0

Cc1onc(-c2c(F)cccc2Cl)c1C(=O)N[C@@H]1C(=O)N2[C@@H]1SC(C)(C)[C@@H]2C(=O)O [Flucloxacillin sodium]
neuronal differentiation score (ReNCell VM [1]; library: Prestwick): inactive: 0 | dopaminergic neuron differentiation score (ReNCell VM [2]; library: Prestwick): inactive: 0

Nc1nc2[nH]cnc2c(=S)[nH]1
neuronal differentiation score (ReNCell VM [1]; library: Spectrum): inactive: 0 | dopaminergic neuron differentiation score (ReNCell VM [2]; library: Spectrum): inactive: 0

S=c1[nH]cnc2nc[nH]c12
neuronal differentiation score (ReNCell VM [1]; library: Spectrum): inactive: 0 | dopaminergic neuron differentiation score (ReNCell VM [2]; library: Spectrum): inactive: 0

CC1(C)O[C@@H]2C[C@H]3[C@@H]4C[C@H](F)C5=CC(=O)C=C[C@]5(C)[C@H]4[C@@H](O)C[C@]3(C)[C@]2(C(=O)CO)O1 [Flunisolide]
neuronal differentiation score (ReNCell VM [1]; library: Prestwick): inactive: 0 | dopaminergic neuron differentiation score (ReNCell VM [2]; library: Prestwick): inactive: 0

CCCCOC(=O)c1ccc(N)cc1 [Butamben]
neuronal differentiation score (ReNCell VM [1]; library: Prestwick): inactive: 0 | dopaminergic neuron differentiation score (ReNCell VM [2]; library: Prestwick): inactive: 0

N=C(N)N1CCc2ccccc2C1
neuronal differentiation score (ReNCell VM [1]; library: Spectrum): inactive: 0 | dopaminergic neuron differentiation score (ReNCell VM [2]; library: Spectrum): inactive: 0

COC1=CC(=O)C=C(OC)C1=O
neuronal differentiation score (ReNCell VM [1]; library: Spectrum): inactive: 0 | dopaminergic neuron differentiation score (ReNCell VM [2]; library: Spectrum): inactive: 0

CCCCS(=N)(=O)CCC(N)C(=O)O [L-Buthionine-sulfoximine]
neuronal differentiation score (ReNCell VM [1]; library: LOPAC): inactive: 0 | dopaminergic neuron differentiation score (ReNCell VM [2]; library: LOPAC): inactive: 0
